Where two headings read alike, the source gives them in different places. These are yes or no findings as the source states them, for the method shown. Binding seen in cells or lysates may run through a third protein. A yes stands for co-enrichment or nearness to the bait. Other partners may have been found.
Experiments:
[1] = biological target: SFB-tagged IP6K1 (human) (UniProt Q92551); test: affinity purification with mass spectrometry
[2] = biological target: SFB-tagged IP6K1 (human) (UniProt Q92551); test: affinity purification with mass spectrometry; remark: listed apart in the source

Amino acid sequences for entries named in this document (tags omitted).
UniProt Q92551: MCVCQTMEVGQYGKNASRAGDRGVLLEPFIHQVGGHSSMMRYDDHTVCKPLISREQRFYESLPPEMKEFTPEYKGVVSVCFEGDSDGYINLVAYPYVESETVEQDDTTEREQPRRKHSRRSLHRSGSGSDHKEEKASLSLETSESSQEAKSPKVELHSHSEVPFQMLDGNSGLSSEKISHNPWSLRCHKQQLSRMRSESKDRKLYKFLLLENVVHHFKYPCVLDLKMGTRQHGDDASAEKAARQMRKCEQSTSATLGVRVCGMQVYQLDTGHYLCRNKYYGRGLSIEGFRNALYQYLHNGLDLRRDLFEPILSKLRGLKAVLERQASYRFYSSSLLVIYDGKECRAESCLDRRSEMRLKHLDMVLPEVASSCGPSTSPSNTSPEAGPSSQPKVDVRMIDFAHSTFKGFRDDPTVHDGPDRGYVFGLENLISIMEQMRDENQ
UniProt Q04637: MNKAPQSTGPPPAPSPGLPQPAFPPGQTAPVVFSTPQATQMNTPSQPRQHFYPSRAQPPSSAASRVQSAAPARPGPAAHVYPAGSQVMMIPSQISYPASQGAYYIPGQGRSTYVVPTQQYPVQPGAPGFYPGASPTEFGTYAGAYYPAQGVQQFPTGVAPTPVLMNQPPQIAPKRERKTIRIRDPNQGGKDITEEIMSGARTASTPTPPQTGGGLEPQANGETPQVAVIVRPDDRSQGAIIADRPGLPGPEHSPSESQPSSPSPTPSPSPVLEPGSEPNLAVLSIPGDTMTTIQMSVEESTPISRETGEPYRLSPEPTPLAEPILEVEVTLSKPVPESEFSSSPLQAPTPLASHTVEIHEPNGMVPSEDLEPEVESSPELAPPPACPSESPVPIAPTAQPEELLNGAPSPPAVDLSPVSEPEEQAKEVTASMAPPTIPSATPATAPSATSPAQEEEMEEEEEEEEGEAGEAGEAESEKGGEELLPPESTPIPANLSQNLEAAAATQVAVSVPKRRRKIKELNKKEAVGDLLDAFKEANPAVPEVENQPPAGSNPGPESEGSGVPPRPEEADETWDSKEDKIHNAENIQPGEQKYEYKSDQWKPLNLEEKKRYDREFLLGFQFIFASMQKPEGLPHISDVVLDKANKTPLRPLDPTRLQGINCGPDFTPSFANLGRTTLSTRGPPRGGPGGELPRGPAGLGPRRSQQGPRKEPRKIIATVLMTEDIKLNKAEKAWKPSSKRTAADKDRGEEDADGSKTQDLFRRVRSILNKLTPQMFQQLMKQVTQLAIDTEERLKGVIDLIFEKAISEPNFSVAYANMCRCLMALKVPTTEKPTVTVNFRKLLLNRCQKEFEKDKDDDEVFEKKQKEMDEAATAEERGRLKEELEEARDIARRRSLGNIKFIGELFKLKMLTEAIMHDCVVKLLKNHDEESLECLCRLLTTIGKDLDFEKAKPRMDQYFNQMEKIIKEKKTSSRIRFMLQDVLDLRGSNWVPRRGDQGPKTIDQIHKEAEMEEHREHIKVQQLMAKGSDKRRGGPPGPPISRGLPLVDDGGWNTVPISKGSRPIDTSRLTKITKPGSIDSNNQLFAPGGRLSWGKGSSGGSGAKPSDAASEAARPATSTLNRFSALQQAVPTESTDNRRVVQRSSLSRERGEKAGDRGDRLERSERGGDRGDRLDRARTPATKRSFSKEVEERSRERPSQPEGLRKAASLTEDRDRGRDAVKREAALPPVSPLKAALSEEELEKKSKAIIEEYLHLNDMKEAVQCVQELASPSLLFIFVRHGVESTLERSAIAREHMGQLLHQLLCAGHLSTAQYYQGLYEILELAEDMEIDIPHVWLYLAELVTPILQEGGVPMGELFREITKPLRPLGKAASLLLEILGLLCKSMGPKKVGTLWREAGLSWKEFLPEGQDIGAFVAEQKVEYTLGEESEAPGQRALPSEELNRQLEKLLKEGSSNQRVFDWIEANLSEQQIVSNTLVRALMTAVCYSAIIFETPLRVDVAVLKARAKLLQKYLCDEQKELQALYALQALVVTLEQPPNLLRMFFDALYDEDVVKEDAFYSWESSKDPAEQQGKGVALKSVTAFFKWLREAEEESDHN
UniProt Q14978: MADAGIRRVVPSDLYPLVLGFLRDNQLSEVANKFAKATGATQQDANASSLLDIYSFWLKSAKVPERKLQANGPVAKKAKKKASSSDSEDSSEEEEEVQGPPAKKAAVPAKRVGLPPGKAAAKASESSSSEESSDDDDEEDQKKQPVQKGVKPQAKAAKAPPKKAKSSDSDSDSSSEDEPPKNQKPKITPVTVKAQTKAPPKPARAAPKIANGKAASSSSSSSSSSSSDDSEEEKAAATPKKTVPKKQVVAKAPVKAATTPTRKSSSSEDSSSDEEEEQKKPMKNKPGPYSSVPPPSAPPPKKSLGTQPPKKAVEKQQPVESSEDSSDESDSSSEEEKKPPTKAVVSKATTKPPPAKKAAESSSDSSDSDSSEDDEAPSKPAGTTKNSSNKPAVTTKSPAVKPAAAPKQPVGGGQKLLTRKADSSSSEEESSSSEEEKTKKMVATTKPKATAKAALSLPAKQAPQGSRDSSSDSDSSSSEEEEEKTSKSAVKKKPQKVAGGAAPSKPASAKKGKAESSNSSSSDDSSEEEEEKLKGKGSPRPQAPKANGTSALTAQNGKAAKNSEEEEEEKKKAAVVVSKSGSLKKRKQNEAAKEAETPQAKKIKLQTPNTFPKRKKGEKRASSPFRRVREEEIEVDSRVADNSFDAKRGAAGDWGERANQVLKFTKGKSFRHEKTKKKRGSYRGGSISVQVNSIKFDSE

## endogenous EIF4G1 (from UniProt Q04637 1-1599)
[1]
  binding: binds

## endogenous CK2 catalytic α’ subunit (CSK22) (from UniProt P19784 1-350) (enzyme)
[1]
  binding: binds

## endogenous NOLC1 (from UniProt Q14978 1-699)
[1]
  binding: binds

B1: endogenous AP3B1 (protein, UniProt O00203 1-1094)
chain: MSSNSFPYNEQSGGGEATELGQEATSTISPSGAFGLFSSDLKKNEDLKQMLESNKDSAKLDAMKRIVGMIAKGKNASELFPAVVKNVASKNIEIKKLVYVYLVRYAEEQQDLALLSISTFQRALKDPNQLIRASALRVLSSIRVPIIVPIMMLAIKEASADLSPYVRKNAAHAIQKLYSLDPEQKEMLIEVIEKLLKDKSTLVAGSVVMAFEEVCPDRIDLIHKNYRKLCNLLVDVEEWGQVVIIHMLTRYARTQFVSPWKEGDELEDNGKNFYESDDDQKEKTDKKKKPYTMDPDHRLLIRNTKPLLQSRNAAVVMAVAQLYWHISPKSEAGIISKSLVRLLRSNREVQYIVLQNIATMSIQRKGMFEPYLKSFYVRSTDPTMIKTLKLEILTNLANEANISTLLREFQTYVKSQDKQFAAATIQTIGRCATNILEVTDTCLNGLVCLLSNRDEIVVAESVVVIKKLLQMQPAQHGEIIKHMAKLLDSITVPVARASILWLIGENCERVPKIAPDVLRKMAKSFTSEDDLVKLQILNLGAKLYLTNSKQTKLLTQYILNLGKYDQNYDIRDRTRFIRQLIVPNVKSGALSKYAKKIFLAQKPAPLLESPFKDRDHFQLGTLSHTLNIKATGYLELSNWPEVAPDPSVRNVEVIELAKEWTPAGKAKQENSAKKFYSESEEEEDSSDSSSDSESESGSESGEQGESGEEGDSNEDSSEDSSSEQDSESGRESGLENKRTAKRNSKAKGKSDSEDGEKENEKSKTSDSSNDESSSIEDSSSDSESESEPESESESRRVTKEKEKKTKQDRTPLTKDVSLLDLDDFNPVSTPVALPTPALSPSLMADLEGLHLSTSSSVISVSTPAFVPTKTHVLLHRMSGKGLAAHYFFPRQPCIFGDKMVSIQITLNNTTDRKIENIHIGEKKLPIGMKMHVFNPIDSLEPEGSITVSMGIDFCDSTQTASFQLCTKDDCFNVNIQPPVGELLLPVAMSEKDFKKEQGVLTGMNETSAVIIAAPQNFTPSVIFQKVVNVANVGAVPSGQDNIHRFAAKTVHSGSLMLVTVELKEGSTAQLIINTEKTVIGSVLLRELKPVLSQG
[2]
  binding: binds

B2: endogenous TCOF (protein, UniProt Q13428 1-1488)
chain: MAEARKRRELLPLIYHHLLRAGYVRAAREVKEQSGQKCFLAQPVTLLDIYTHWQQTSELGRKRKAEEDAALQAKKTRVSDPISTSESSEEEEEAEAETAKATPRLASTNSSVLGADLPSSMKEKAKAETEKAGKTGNSMPHPATGKTVANLLSGKSPRKSAEPSANTTLVSETEEEGSVPAFGAAAKPGMVSAGQADSSSEDTSSSSDETDVEGKPSVKPAQVKASSVSTKESPARKAAPAPGKVGDVTPQVKGGALPPAKRAKKPEEESESSEEGSESEEEAPAGTRSQVKASEKILQVRAASAPAKGTPGKGATPAPPGKAGAVASQTKAGKPEEDSESSSEESSDSEEETPAAKALLQAKASGKTSQVGAASAPAKESPRKGAAPAPPGKTGPAVAKAQAGKREEDSQSSSEESDSEEEAPAQAKPSGKAPQVRAASAPAKESPRKGAAPAPPRKTGPAAAQVQVGKQEEDSRSSSEESDSDREALAAMNAAQVKPLGKSPQVKPASTMGMGPLGKGAGPVPPGKVGPATPSAQVGKWEEDSESSSEESSDSSDGEVPTAVAPAQEKSLGNILQAKPTSSPAKGPPQKAGPVAVQVKAEKPMDNSESSEESSDSADSEEAPAAMTAAQAKPALKIPQTKACPKKTNTTASAKVAPVRVGTQAPRKAGTATSPAGSSPAVAGGTQRPAEDSSSSEESDSEEEKTGLAVTVGQAKSVGKGLQVKAASVPVKGSLGQGTAPVLPGKTGPTVTQVKAEKQEDSESSEEESDSEEAAASPAQVKTSVKKTQAKANPAAARAPSAKGTISAPGKVVTAAAQAKQRSPSKVKPPVRNPQNSTVLARGPASVPSVGKAVATAAQAQTGPEEDSGSSEEESDSEEEAETLAQVKPSGKTHQIRAALAPAKESPRKGAAPTPPGKTGPSAAQAGKQDDSGSSSEESDSDGEAPAAVTSAQVIKPPLIFVDPNRSPAGPAATPAQAQAASTPRKARASESTARSSSSESEDEDVIPATQCLTPGIRTNVVTMPTAHPRIAPKASMAGASSSKESSRISDGKKQEGPATQVSKKNPASLPLTQAALKVLAQKASEAQPPVARTQPSSGVDSAVGTLPATSPQSTSVQAKGTNKLRKPKLPEVQQATKAPESSDDSEDSSDSSSGSEEDGEGPQGAKSAHTLGPTPSRTETLVEETAAESSEDDVVAPSQSLLSGYMTPGLTPANSQASKATPKLDSSPSVSSTLAAKDDPDGKQEAKPQQAAGMLSPKTGGKEAASGTTPQKSRKPKKGAGNPQASTLALQSNITQCLLGQPWPLNEAQVQASVVKVLTELLEQERKKVVDTTKESSRKGWESRKRKLSGDQPAARTPRSKKKKKLGAGEGGEASVSPEKTSTTSKGKAKRDKASGDVKEKKGKGSLGSQGAKDEPEEELQKGMGTVEGGDQSNPKSKKEKKKSDKRKKDKEKKEKKKKAKKASTKDSESPSQKKKKKKKKTAEQTV
[2]
  binding: binds
